Measured values as given in the supplement of paper PMC4807443.
Where a name gives a salt, the structure may show the parent alone. The list shows a part of the results. The numbers are fractions of the control, whatever unit the source prints. Most entries show no effect beyond the scatter of the controls.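 MIN6 is a mouse insulinoma beta-cell line that stably carries a lentiviral reporter in which the Pdx1 and Ins1 promoters each drive a nucleus-targeted fluorescent protein; cells were counted by automated imaging with a Hoechst nuclear stain. In the screen, a drug was a possible hit when its Ins1 promoter readout lay beyond two median absolute deviations from the DMSO controls while Pdx1 activity stayed near normal.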

Test system: MIN6
Test: % Pdx1+ Ins1-low (RFP-only, immature) cells relative to DMSO control (fold of DMSO control); higher = more immature Pdx1+/Ins1-low cells
Conditions: 8.5 µM; 48 h; glucose 5 mM

Question: CNCCCC1c2ccccc2C=Cc2ccccc21 [Protriptyline hydrochloride] was tested. Which “% Pdx1+ Ins1-low” value did it give?
Answer: 0.718

Question: With CCCCCCC[N+](CC)(CC)CCCCc1ccc(Cl)cc1 [Clofilium tosylate] as the compound, how does the “% Pdx1+ Ins1-low” value read?
Answer: 1.58

Question: Which “% Pdx1+ Ins1-low” value does the source give for C[N+]1(CCCCC[N+]2(C)CCCC2)CCCC1 [Pentolinium bitartrate] here?
Answer: 1.03

Question: With CCCc1cc(=O)[nH]c(=S)[nH]1 [Propylthiouracil] as the compound, how does the “% Pdx1+ Ins1-low” value read?
Answer: 0.399

Question: COc1ccc(CCN(C)CCCC(C#N)(c2ccc(OC)c(OC)c2)C(C)C)cc1OC (centres undefined) [Verapamyl hydrochloride] was tested. Which “% Pdx1+ Ins1-low” value did it give?
Answer: 1.07

Question: For CCCN(CCC)S(=O)(=O)c1ccc(C(=O)O)cc1 [Probenecid], which “% Pdx1+ Ins1-low” value is on record?
Answer: 0.89

Question: With C[C@]12CC[C@@H]3c4ccc(O)cc4CC[C@H]3[C@@H]1CC[C@@H]2O [Estradiol-17 beta] as the compound, how does the “% Pdx1+ Ins1-low” value read?
Answer: 1.03

Question: CN(C)CC/C=C1/c2ccccc2Sc2ccc(Cl)cc21 [Chlorprothixene hydrochloride] was tested. Which “% Pdx1+ Ins1-low” value did it give?
Answer: 1.13

Question: How did the “% Pdx1+ Ins1-low” value turn out when NC(Cc1cc(I)c(Oc2cc(I)c(O)c(I)c2)c(I)c1)C(=O)O (centres undefined) [Thyroxine (L)] was run?
Answer: 0.841

Question: Which “% Pdx1+ Ins1-low” value does the source give for CC(=O)[C@H]1CC[C@H]2[C@@H]3CCC4=CC(=O)CC[C@]4(C)[C@H]3CC[C@]12C [Progesterone] here?
Answer: 0.624

Question: For CN(C)CCOC(c1ccccc1)c1ccccc1 [Diphenhydramine hydrochloride], which “% Pdx1+ Ins1-low” value is on record?
Answer: 1.36

Question: Which “% Pdx1+ Ins1-low” value does the source give for N=C(N)NC(=O)Cc1c(Cl)cccc1Cl [Guanfacine hydrochloride] here?
Answer: 1.03

Question: How did the “% Pdx1+ Ins1-low” value turn out when C[n+]1cc2c3c(ccc2c2ccc4cc5c(cc4c21)OCO5)OCO3 [Sanguinarine] was run?
Answer: 0.687

Question: Clc1ccc(CSC(Cn2ccnc2)c2ccc(Cl)cc2Cl)cc1 (centres undefined) [Sulconazole nitrate] was tested. Which “% Pdx1+ Ins1-low” value did it give?
Answer: 0.795

Question: With CN1C(=O)CC(c2ccccc2)C1=O (centres undefined) [Phensuximide] as the compound, how does the “% Pdx1+ Ins1-low” value read?
Answer: 0.777

Question: N[C@@H]1CONC1=O [D-cycloserine] was tested. Which “% Pdx1+ Ins1-low” value did it give?
Answer: 0.925

Question: Which “% Pdx1+ Ins1-low” value does the source give for O=C(O)COCCN1CCN(C(c2ccccc2)c2ccc(Cl)cc2)CC1 (centres undefined) [Cetirizine dihydrochloride] here?
Answer: 1.39

Question: For CC(=O)O[C@]1(C(C)=O)CC[C@H]2[C@@H]3C=C(Cl)C4=CC(=O)[C@@H]5C[C@@H]5[C@]4(C)[C@H]3CC[C@@]21C [Cyproterone acetate], which “% Pdx1+ Ins1-low” value is on record?
Answer: 0.888

Question: O=C(O)/C=C/c1ccc(O)c(O)c1 [Caffeic acid] was tested. Which “% Pdx1+ Ins1-low” value did it give?
Answer: 1.18

Question: For COc1cc2nc(N(C)CCCNC(=O)C3CCCO3)nc(N)c2cc1OC (centres undefined) [Alfuzosin hydrochloride], which “% Pdx1+ Ins1-low” value is on record?
Answer: 1.03

Question: For Clc1ccc(Cn2c(CN3CCCC3)nc3ccccc32)cc1 [Clemizole hydrochloride], which “% Pdx1+ Ins1-low” value is on record?
Answer: 1.46

Question: NC(=O)c1cc[n+](CC2=C(C(=O)[O-])N3C(=O)[C@@H](NC(=O)[C@@H](c4ccccc4)S(=O)(=O)O)[C@H]3SC2)cc1 [Cefsulodin sodium salt] was tested. Which “% Pdx1+ Ins1-low” value did it give?
Answer: 0.832

Question: Which “% Pdx1+ Ins1-low” value does the source give for CC1=C(/C=C/C(C)=C/C=C/C(C)=C/C(=O)O)C(C)(C)CCC1 [Retinoic acid] here?
Answer: 0.843

Question: N=C(N)NS(=O)(=O)c1ccc(N)cc1 [Sulfaguanidine] was tested. Which “% Pdx1+ Ins1-low” value did it give?
Answer: 1.14

Question: How did the “% Pdx1+ Ins1-low” value turn out when Cc1ncc(CO)c(CO)c1O [Pyridoxine hydrochloride] was run?
Answer: 0.838

Question: For CCC1(c2ccccc2)NC(=O)N(C)C1=O (centres undefined) [Mephenytoin], which “% Pdx1+ Ins1-low” value is on record?
Answer: 1.21

Question: CCc1c(C)[nH]c2c1C(=O)C(CN1CCOCC1)CC2 (centres undefined) [Molindone hydrochloride] was tested. Which “% Pdx1+ Ins1-low” value did it give?
Answer: 0.668

Question: For Cc1c(C)c2c(c(C)c1O)CCC(C)(C(=O)O)O2 (centres undefined) [Trolox], which “% Pdx1+ Ins1-low” value is on record?
Answer: 0.746

Question: CC[C@H](C)C(=O)O[C@H]1C[C@@H](C)C=C2C=C[C@H](C)[C@H](CC[C@@H]3C[C@@H](O)CC(=O)O3)[C@H]21 [Lovastatin] was tested. Which “% Pdx1+ Ins1-low” value did it give?
Answer: 1.17

Question: How did the “% Pdx1+ Ins1-low” value turn out when CCN(CC)CCOC(=O)c1ccc(N)cc1 [Procaine hydrochloride] was run?
Answer: 1.26

Question: With CC(C)=CCC/C(C)=C/CC/C(C)=C/CC/C(C)=C/CC/C(C)=C/CC/C(C)=C/CC1=C(C)C(=O)c2ccccc2C1=O [Vitamin K2] as the compound, how does the “% Pdx1+ Ins1-low” value read?
Answer: 0.985

Question: Which “% Pdx1+ Ins1-low” value does the source give for CN(C)CCn1nnnc1SCC1=C(C(=O)O)N2C(=O)[C@@H](NC(=O)Cc3csc(N)n3)[C@H]2SC1 [Cefotiam hydrochloride] here?
Answer: 0.907

Question: With CC(=O)O[C@H]1C[C@@]2(C)[C@@H](C[C@@H](O)[C@H]3[C@@]4(C)CC[C@@H](O)[C@@H](C)[C@@H]4CC[C@@]32C)/C1=C(\CCC=C(C)C)C(=O)O [Fusidic acid sodium salt] as the compound, how does the “% Pdx1+ Ins1-low” value read?
Answer: 0.959

Question: For N=C(N)NCc1cccc(I)c1 [Iobenguane sulfate], which “% Pdx1+ Ins1-low” value is on record?
Answer: 1.13

Question: How did the “% Pdx1+ Ins1-low” value turn out when Cc1ccnc(NS(=O)(=O)c2ccc(N)cc2)n1 [Sulfamerazine] was run?
Answer: 0.975

Question: With C[C@H]1NC(=O)NC1=O [Methylhydantoin-5-(D)] as the compound, how does the “% Pdx1+ Ins1-low” value read?
Answer: 0.388

Question: With COc1ccc(C[C@H](N)C(=O)N[C@H]2[C@@H](O)[C@H](n3cnc4c(N(C)C)ncnc43)O[C@@H]2CO)cc1 [Puromycin dihydrochloride] as the compound, how does the “% Pdx1+ Ins1-low” value read?
Answer: 0.793

Question: For Nc1ccc(S(=O)(=O)Nc2cnc3ccccc3n2)cc1 [Sulfaquinoxaline sodium salt], which “% Pdx1+ Ins1-low” value is on record?
Answer: 1.03

Question: How did the “% Pdx1+ Ins1-low” value turn out when CNC[C@H](O)[C@@H](O)[C@H](O)[C@H](O)CO [Meglumine] was run?
Answer: 0.819

Question: Which “% Pdx1+ Ins1-low” value does the source give for CC(=O)Oc1ccccc1C(=O)Oc1ccccc1C(=O)O [Acetylsalicylsalicylic acid] here?
Answer: 0.947

Question: How did the “% Pdx1+ Ins1-low” value turn out when CNC(=O)c1c(I)c(C(=O)NCC(=O)Nc2c(I)c(C(=O)O)c(I)c(C(=O)NCCO)c2I)c(I)c(N(C)C(C)=O)c1I [Ioxaglic acid] was run?
Answer: 1.11

Question: How did the “% Pdx1+ Ins1-low” value turn out when CCCCNc1cc(C(=O)O)cc(S(N)(=O)=O)c1Oc1ccccc1 [Bumetanide] was run?
Answer: 1.02

Question: How did the “% Pdx1+ Ins1-low” value turn out when CC(C)n1c(/C=C/C(O)CC(O)CC(=O)O)c(-c2ccc(F)cc2)c2ccccc21 (centres undefined) [Fluvastatin sodium salt] was run?
Answer: 0.937

Question: Which “% Pdx1+ Ins1-low” value does the source give for CN(C/C=C/c1ccccc1)Cc1cccc2ccccc12 [Naftifine hydrochloride] here?
Answer: 1.03

Question: How did the “% Pdx1+ Ins1-low” value turn out when CN1C(=O)OC(C)(C)C1=O [Trimethadione] was run?
Answer: 0.888

Question: With CC(=O)CCCCn1c(=O)c2c(ncn2C)n(C)c1=O [Pentoxifylline] as the compound, how does the “% Pdx1+ Ins1-low” value read?
Answer: 0.934

Question: For CC(C)NC[C@H](O)COc1cccc2ccccc12 [(S)-propranolol hydrochloride], which “% Pdx1+ Ins1-low” value is on record?
Answer: 0.658

Question: CCN1CCCC(OC(=O)C(c2ccccc2)c2ccccc2)C1 (centres undefined) [Piperidolate hydrochloride] was tested. Which “% Pdx1+ Ins1-low” value did it give?
Answer: 0.806

Question: For NS(=O)(=O)c1cc(Cl)c(Cl)c(S(N)(=O)=O)c1 [Dichlorphenamide], which “% Pdx1+ Ins1-low” value is on record?
Answer: 0.735
